Earlier results as cited in patent publication US8404246B2, “Nutritional supplement to improve supplementary target protein fraction (TPF) delivery, intracellular absorption and utilization” (priority 2010, dated 2013).
Some of these results come from one statement about several compounds together. At least one compound was matched to its structure with a doubt left.

Sequences of proteins named here, by UniProt entry; tags and fusion partners are left off.
UniProt P20648, whole entry: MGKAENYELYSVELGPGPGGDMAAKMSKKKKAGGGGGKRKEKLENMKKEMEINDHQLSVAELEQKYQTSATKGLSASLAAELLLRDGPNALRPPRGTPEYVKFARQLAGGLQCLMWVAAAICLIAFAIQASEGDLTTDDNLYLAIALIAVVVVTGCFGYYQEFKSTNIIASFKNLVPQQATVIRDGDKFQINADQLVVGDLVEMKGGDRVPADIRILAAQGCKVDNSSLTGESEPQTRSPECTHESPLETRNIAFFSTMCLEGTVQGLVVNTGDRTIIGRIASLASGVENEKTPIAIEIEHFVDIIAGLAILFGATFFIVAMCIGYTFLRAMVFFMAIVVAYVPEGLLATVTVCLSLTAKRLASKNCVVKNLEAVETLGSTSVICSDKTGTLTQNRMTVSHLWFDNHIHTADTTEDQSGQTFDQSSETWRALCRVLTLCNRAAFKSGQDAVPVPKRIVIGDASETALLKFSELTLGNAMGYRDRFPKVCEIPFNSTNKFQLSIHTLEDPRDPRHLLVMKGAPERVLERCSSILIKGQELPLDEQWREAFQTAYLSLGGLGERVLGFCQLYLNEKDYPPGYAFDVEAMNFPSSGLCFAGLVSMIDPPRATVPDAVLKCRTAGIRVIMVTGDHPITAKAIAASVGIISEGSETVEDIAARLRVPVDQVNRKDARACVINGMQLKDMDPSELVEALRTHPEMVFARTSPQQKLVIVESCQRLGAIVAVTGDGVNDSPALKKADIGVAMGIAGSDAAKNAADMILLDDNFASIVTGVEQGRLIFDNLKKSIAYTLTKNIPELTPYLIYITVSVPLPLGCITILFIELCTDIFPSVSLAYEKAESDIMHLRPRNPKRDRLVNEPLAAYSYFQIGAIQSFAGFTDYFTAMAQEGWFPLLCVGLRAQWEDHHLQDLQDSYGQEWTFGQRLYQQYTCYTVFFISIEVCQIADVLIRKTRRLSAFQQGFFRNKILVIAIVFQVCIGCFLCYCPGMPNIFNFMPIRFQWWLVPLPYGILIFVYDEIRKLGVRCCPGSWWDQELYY

Target: H+,K+ ATPase-gastric acid pump (Homo sapiens, UniProt P20648)

SMILES | duration of suppression of H+,K+ ATPase-gastric acid pump activity [h]
Cc1c(OCC(F)(F)F)ccnc1C[S+]([O-])c1nc2ccccc2[nH]1 (stereo not drawn) [lansoprazole] | ≥ 2
COc1ccc2[nH]c([S+]([O-])Cc3ncc(C)c(OC)c3C)nc2c1 (stereo not drawn) [omeprazole] | ≥ 2
COc1ccnc(C[S+]([O-])c2nc3ccc(OC(F)F)cc3[nH]2)c1OC (stereo not drawn) [pantoprazole] | ≥ 2
